Measurements published in publication PMC5078803.
These are yes or no findings as the source states them, for the method shown. Binding seen in cells or lysates may run through a third protein. Here binding means that the protein was enriched with, or labelled near, the bait; the list need not be complete.

By UniProt entry, the sequences of proteins in these tests, tags left out. Where a name states a change or a piece, a line headed by the entry shows the natural chain unless it says otherwise.
UniProt Q386R9: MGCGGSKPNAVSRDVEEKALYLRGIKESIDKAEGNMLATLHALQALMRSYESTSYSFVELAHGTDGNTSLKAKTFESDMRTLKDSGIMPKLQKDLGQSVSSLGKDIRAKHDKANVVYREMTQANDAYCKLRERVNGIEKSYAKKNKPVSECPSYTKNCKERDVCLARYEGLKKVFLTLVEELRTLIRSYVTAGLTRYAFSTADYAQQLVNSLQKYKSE
UniProt Q382I7: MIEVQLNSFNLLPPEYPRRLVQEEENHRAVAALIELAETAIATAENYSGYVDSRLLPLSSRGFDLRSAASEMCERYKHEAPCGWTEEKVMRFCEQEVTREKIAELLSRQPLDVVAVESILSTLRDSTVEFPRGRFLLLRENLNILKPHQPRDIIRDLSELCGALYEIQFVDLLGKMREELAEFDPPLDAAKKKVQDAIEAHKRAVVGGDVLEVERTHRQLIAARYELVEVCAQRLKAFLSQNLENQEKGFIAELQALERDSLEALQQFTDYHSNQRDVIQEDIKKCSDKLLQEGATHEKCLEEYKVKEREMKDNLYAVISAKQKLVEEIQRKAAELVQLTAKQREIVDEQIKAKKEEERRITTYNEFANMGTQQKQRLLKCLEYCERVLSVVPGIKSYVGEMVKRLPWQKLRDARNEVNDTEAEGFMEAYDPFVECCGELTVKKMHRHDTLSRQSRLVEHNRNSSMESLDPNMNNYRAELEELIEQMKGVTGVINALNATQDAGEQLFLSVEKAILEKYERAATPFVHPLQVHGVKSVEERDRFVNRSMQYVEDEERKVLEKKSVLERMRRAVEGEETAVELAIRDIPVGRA

Target: TbFlabarin-like (TbFlabarinL, Tb927.11.2400) (Trypanosoma brucei (endogenous in BSF cells)) (UniProt Q386R9)
Assay: affinity purification with mass spectrometry; polyclonal anti-TbFlabarinL antibody on protein G Sepharose beads; lysates of WT and ∆TbFlabarinL (control) BSF cells, four biological replicates each; IP buffer 150 mM NaCl, 20 mM Tris-HCl pH 8, 10 mM MgCl2, 0.25% IGEPAL, 1 mM DTT; overnight, 4 °C; label-free quantitative mass spectrometry

binding: binds
Substance: PAR1 (Tb927.11.13500), paraflagellar rod component (from UniProt Q382I7)
